# Results reported in PubChem BioAssay (EPA / NIEHS).
# Sequences of proteins named here, by UniProt entry; tags and fusion partners are left off. A change or cut given only in a name is not applied to a line headed by its entry.
# UniProt P10827: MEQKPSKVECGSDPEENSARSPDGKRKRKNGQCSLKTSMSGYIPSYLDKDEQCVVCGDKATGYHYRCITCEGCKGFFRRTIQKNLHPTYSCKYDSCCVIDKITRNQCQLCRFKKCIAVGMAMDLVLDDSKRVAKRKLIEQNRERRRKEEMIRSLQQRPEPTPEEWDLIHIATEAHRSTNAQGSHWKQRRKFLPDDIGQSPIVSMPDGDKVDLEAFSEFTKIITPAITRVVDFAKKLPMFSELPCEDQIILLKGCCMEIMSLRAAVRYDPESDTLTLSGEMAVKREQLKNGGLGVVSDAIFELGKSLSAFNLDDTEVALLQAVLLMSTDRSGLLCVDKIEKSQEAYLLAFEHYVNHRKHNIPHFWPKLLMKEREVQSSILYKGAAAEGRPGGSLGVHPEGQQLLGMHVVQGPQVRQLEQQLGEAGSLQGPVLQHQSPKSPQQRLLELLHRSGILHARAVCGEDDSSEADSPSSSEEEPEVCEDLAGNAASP
# “And” between values parts separate entries of the source, which are not always exact repeats. Equal values may be shown once. The shares of active, inactive and inconclusive entries below differ from those in the screen. Where the call is inconclusive, the potency comes from a doubtful curve fit. The source made the active and inactive calls. How the source made its calls: active means hit-call score of the fitted dose curve at least 0.9, where 1 is the maximum; inconclusive means response in the unintended direction; inactive means score below 0.9.
# Target: human Thyroid Receptor alpha (THRa1), THRA (gene 7067) (UniProt P10827)
# Assay: ATG_THRa1_TRANS: Attagene TRANS-FACTORIAL HepG2 Assay for human Thyroid Receptor alpha (THRa1) (AID 2283014)
# Protocol: ATG_TRANS is a cell-based, multiplexed-readout assay that uses HepG2, a human liver cell line, with measurements taken at 24 hours after chemical dosing in a 24-well plate.ATG_THRa1_TRANS is one of 30 assay component(s) measured or calculated from the ATG_TRANS assay. It is designed to make measurements of mRNA induction, a form of inducible reporter, as detected with fluorescence intensity signals by Reverse transcription polymerase chain reaction (RT-PCR) and Capillary electrophoresis technology.Data from the assay component ATG_THRa1_TRANS was analyzed into 1 assay endpoint. This assay endpoint, ATG_THRa1_TRANS, was analyzed in the positive analysis fitting direction relative to DMSO as the negative control and baseline of activity. Using a type of inducible reporter, measures of mRNA for gain-of-signal activity can be used to understand the reporter gene at the transcription factor-level as they relate to the gene THRA. Furthermore, this assay endpoint can be referred to as a primary readout, because this assay has produced multiple assay endpoints where this one serves a reporter gene function. To generalize the intended target to other relatable targets, this assay endpoint is annotated to the nuclear receptor intended target family, where the subfamily is non-steroidal.
# Human liver HepG2 cells are transiently transfected with multiple reporter transcription units (MRTUs) in 6-well plates using FuGene 6 reagent (Roche; 3 ml FuGene/1 mg DNA). The MRTU constructs are regulated by a cis-regulating element (promoter). […] A major difference between the CIS and TRANS system is that in CIS activities of endogenous TFs are measured, whereas the TRANS assay evaluates changes in activities of exogenous, chimeric NR-Gal4 proteins. […] At the end of 24 hour incubation, total RNA was isolated using TriZol reagent (Invitrogen). The isolated RNA is then reverse-transcribed using oligo(dT) primer and Mo-MLV reverse transcriptase (Invitrogen) with DNAse I (Ambion) treatment for 30 min. The one-tenth of the produced cDNA was amplified by PCR using Taq DNA polymerase (Invitrogen) and two reporter sequence-specific primers. The PCR products were fluorescently labeled by primer extension with 6-arboxyfluorescein (6-FAM) 5'-labeled reporter sequence-specific primer (2 min at 95 C, 20 s at 68 C and 10 min at 72 C) and these products were digested with 5U of HpaI (New England Biolabs) for 2h at 37 C. The fragments were purified using Qiaquick PCR columns (Qiagen), analyzed on an ABI 3130xL genetic analyzer (Applied Biosystems) with peak positions identified by using a set of X-rhodamine (ROX)-labeled MapMarker1000 molecular weight standards (BioVentures). The raw capillary electrophoresis data was processed using Attagraph software (Attagene).
Compound,AC50,outcome
O=C1OC(=O)C2C3C=CC(C3)C12 (stereo not given),inconclusive: 100 µM,–
CO[Si](OC)(c1ccccc1)c1ccccc1,inconclusive: 100 µM,–
NNc1nc(-c2ccc([N+](=O)[O-])cc2)cs1,active: 48.5 µM,–
BrCc1cccc(Oc2ccccc2)c1,–,inactive
CCCCCCCCC(F)(F)C(F)(F)C(F)(F)C(F)(F)C(F)(F)C(F)(F)F,inconclusive: 50 µM,–
[O-]n1ccccc1=S.[O-]n1ccccc1=S.[Zn+2],inconclusive: 0.00144 µM,–
FC(F)(F)C(F)(F)C(F)(F)C(F)(F)C(F)(F)C(F)(F)CCS,–,inactive
CCCCCCCC/C=C\CCCCCCCC(=O)OCC,inconclusive: 100 µM,–
CC1(C)O[C@@H]2C[C@H]3[C@@H]4C[C@H](F)C5=CC(=O)C=C[C@]5(C)[C@@]4(F)[C@@H](O)C[C@]3(C)[C@]2(C(=O)CO)O1,–,inactive
CCOC(=O)c1ccccc1OC,inconclusive: 183 µM,–
CC(=O)CC(c1ccccc1)c1c(O)c2ccccc2oc1=O (stereo not given),inconclusive: 100 µM,–
CCc1cccc(C)c1N(C(=O)CS(=O)(=O)O)C(C)COC (stereo not given),–,inactive
Nc1ccnc(=O)[nH]1,inconclusive: 100 µM,–

Compound,AC50,outcome
CCCCC1CCC(=O)O1 (stereo not given),inconclusive: 100 µM,–
CCCC(C)C(O)CC (stereo not given),inconclusive: 2.86 µM,–
CCCCCCCC(=O)OCCCCCC,inconclusive: 4.17 µM,–
Cc1oc(-c2ccccc2)nc1CCOc1ccc(C[C@H](Nc2ccccc2C(=O)c2ccccc2)C(=O)O)cc1,inconclusive: 0.196 µM,–
NC(N)=NC(N)=NCCc1ccccc1,–,inactive
Cc1cc(NC(=O)C(=O)O)cc(C)c1Oc1ccc(O)c2c1CCC2,active: 0.00869 µM,–
S=C(S)NCCNC(=S)S.[Mn+2].[S-]C([S-])=NCCN=C([S-])[S-].[Zn+2],–,inactive
C=CC(C)(O)CCC=C(C)CCC=C(C)C (stereo not given),inconclusive: 162 µM,–
CCCCC1(COC(=O)CCC(=O)O)C(=O)N(c2ccccc2)N(c2ccccc2)C1=O,inconclusive: 51 µM,–
CCC/C=C/CO,inconclusive: 1.8 µM,–
CCCCCCOc1ccc(N)cc1,inconclusive: 176 µM,–
CC(Oc1cc(Cl)ccc1Cl)C(=O)O (stereo not given),inconclusive: 100 µM,–
CC(=O)C(C)C,inconclusive: 146 µM,–
C[C@H]1C[C@@H]2[C@H]([C@@H](O)C[C@@]3(C)[C@H]2CC[C@]3(O)C(=O)CO)[C@@]2(C)C=CC(=O)C=C12,–,inactive
C=CC(C)(CCC=C(C)C)OC(=O)c1ccccc1 (stereo not given),–,inactive
CCCCCC=CCC(=O)OC,inconclusive: 1.82 µM,–
CCCCCCC(C=O)=Cc1ccccc1,inconclusive: 100 µM and inconclusive: 60 µM,–
C=C(C)C(=O)OCC(O)COc1ccc(C(C)(C)c2ccc(OCC(O)COC(=O)C(=C)C)cc2)cc1 (stereo not given),active: 23.8 µM,–

# Single records, as listed above.
# [O-]n1ccccc1=S.[O-]n1ccccc1=S.[Zn+2] is listed as AC50: inconclusive: 0.00144 µM
# C=CC(C)(O)CCC=C(C)CCC=C(C)C (stereo not given) is listed as AC50: inconclusive: 162 µM
